Data: the supplement of paper PMC8728848
Some of the results follow.

Experiments:
Experiment in all cases: glycan array binding signal (z-score within array); higher = stronger binding
Conditions in all cases: glycan notation: IUPAC condensed, linker removed
[1] = target: Gal(b1-3)GlcNAc(b1-3)Gal(b1-4)GlcNAc(b1-2)[Gal(b1-3)GlcNAc(b1-3)Gal(b1-4)GlcNAc(b1-6)]Man(a1-6)[Gal(b1-3)GlcNAc(b1-3)Gal(b1-4)GlcNAc(b1-2)Man(a1-3)]Man(b1-4)GlcNAc(b1-4)[Fuc(a1-6)]GlcNAc
Method in brief: (§1)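 Glycan array binding is given as a within-array Z-score, which can be read as non-binding when negative. The arrays, 3228 of them, came from the Consortium for Functional Glycomics database and were retained only where the protein sequence was available. Z-scores were averaged across arrays of the same protein sequence at different concentrations or buffers and across linkers.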

[2] = target: Gal(b1-3)GlcNAc(b1-3)Gal(b1-4)GlcNAc(b1-3)Gal(b1-4)GlcNAc(b1-2)[Gal(b1-3)GlcNAc(b1-3)Gal(b1-4)GlcNAc(b1-3)Gal(b1-4)GlcNAc(b1-6)]Man(a1-6)[Gal(b1-3)GlcNAc(b1-3)Gal(b1-4)GlcNAc(b1-3)Gal(b1-4)GlcNAc(b1-2)Man(a1-3)]Man(b1-4)GlcNAc(b1-4)[Fuc(a1-6)]GlcNAc
Method in brief: as §1

[3] = target: Gal(b1-3)GlcNAc(b1-3)Gal(b1-4)GlcNAc(b1-6)[Gal(b1-3)GlcNAc(b1-3)]Gal(b1-4)Glc
Method in brief: as §1

[4] = target: Gal(b1-3)GlcNAc(b1-3)Gal(b1-4)[Fuc(a1-3)]GlcNAc
Method in brief: as §1

[5] = target: Gal(b1-3)GlcNAc(b1-3)Gal(b1-4)[Fuc(a1-3)]GlcNAc(b1-6)[Gal(b1-3)GlcNAc(b1-3)]Gal(b1-4)Glc
Method in brief: as §1

[6] = target: Gal(b1-3)GlcNAc(b1-3)GalNAc
Method in brief: as §1

[7] = target: Gal(b1-3)GlcNAc(b1-6)Gal(b1-4)GlcNAc
Method in brief: as §1

[8] = target: Gal(b1-3)GlcNAc(b1-6)GalNAc
Method in brief: as §1

[9] = target: Gal(b1-3)GlcNAc(b1-6)[Gal(b1-3)]GalNAc
Method in brief: as §1

Gal(b1-3)GlcNAc6S = target: Gal(b1-3)GlcNAc6S
Method in brief: as §1

[10] = target: Gal(b1-3)[Fuc(a1-4)]GlcNAc
Method in brief: as §1

[11] = target: Gal(b1-3)[Fuc(a1-4)]GlcNAc(b1-2)Man
Method in brief: as §1

[12] = target: Gal(b1-3)[Fuc(a1-4)]GlcNAc(b1-2)Man(a1-3)[Gal(b1-3)[Fuc(a1-4)]GlcNAc(b1-2)Man(a1-6)]Man(b1-4)GlcNAc(b1-4)[Fuc(a1-6)]GlcNAc
Method in brief: as §1

[13] = target: Gal(b1-3)[Fuc(a1-4)]GlcNAc(b1-3)Gal(b1-3)[Fuc(a1-4)]GlcNAc
Method in brief: as §1

[14] = target: Gal(b1-3)[Fuc(a1-4)]GlcNAc(b1-3)Gal(b1-4)[Fuc(a1-3)]GlcNAc
Method in brief: as §1

[15] = target: Gal(b1-3)[Fuc(a1-4)]GlcNAc(b1-6)GalNAc
Method in brief: as §1

[16] = target: Gal(b1-3)[GlcNAc(b1-6)]GalNAc
Method in brief: as §1

[17] = target: Gal(b1-3)[Neu5Ac(a2-6)]GalNAc
Method in brief: as §1

[18] = target: Gal(b1-3)[Neu5Ac(a2-6)]GlcNAc(b1-4)Gal(b1-4)Glc
Method in brief: as §1

[19] = target: Gal(b1-3)[Neu5Ac(b2-6)]GalNAc
Method in brief: as §1

Gal(b1-4)Gal = target: Gal(b1-4)Gal
Method in brief: as §1

[20] = target: Gal(b1-4)GalNAc(a1-3)[Fuc(a1-2)]Gal(b1-4)GlcNAc
Method in brief: as §1

[21] = target: Gal(b1-4)GalNAc(b1-3)[Fuc(a1-2)]Gal(b1-4)GlcNAc
Method in brief: as §1

Gal(b1-4)Glc = target: Gal(b1-4)Glc
Method in brief: as §1

Gal(b1-4)Glc6S = target: Gal(b1-4)Glc6S
Method in brief: as §1

Gal(b1-4)GlcNAc = target: Gal(b1-4)GlcNAc
Method in brief: as §1

[22] = target: Gal(b1-4)GlcNAc(a1-6)Gal(b1-4)GlcNAc
Method in brief: as §1

Gal(b1-4)GlcNAc(b1-2)Man = target: Gal(b1-4)GlcNAc(b1-2)Man
Method in brief: as §1

[23] = target: Gal(b1-4)GlcNAc(b1-2)Man(a1-3)Man(b1-4)GlcNAc(b1-4)GlcNAc
Method in brief: as §1

[24] = target: Gal(b1-4)GlcNAc(b1-2)Man(a1-3)[Gal(b1-4)GlcNAc(b1-2)Man(a1-6)]Man(b1-4)GlcNAc(b1-4)GlcNAc
Method in brief: as §1

[25] = target: Gal(b1-4)GlcNAc(b1-2)Man(a1-3)[Gal(b1-4)GlcNAc(b1-2)Man(a1-6)]Man(b1-4)GlcNAc(b1-4)[Fuc(a1-6)]GlcNAc
Method in brief: as §1

[26] = target: Gal(b1-4)GlcNAc(b1-2)Man(a1-3)[Gal(b1-4)GlcNAc(b1-2)Man(a1-6)][Gal(b1-4)GlcNAc(b1-4)]Man(b1-4)GlcNAc(b1-4)[Fuc(a1-6)]GlcNAc
Method in brief: as §1

[27] = target: Gal(b1-4)GlcNAc(b1-2)Man(a1-3)[Gal(b1-4)GlcNAc(b1-2)Man(a1-6)][GlcNAc(b1-4)]Man(b1-4)GlcNAc(b1-4)[Fuc(a1-6)]GlcNAc
Method in brief: as §1

[28] = target: Gal(b1-4)GlcNAc(b1-2)Man(a1-3)[GlcNAc(b1-2)Man(a1-6)]Man(b1-4)GlcNAc(b1-4)GlcNAc
Method in brief: as §1

[29] = target: Gal(b1-4)GlcNAc(b1-2)Man(a1-3)[GlcNAc(b1-4)][Gal(b1-4)GlcNAc(b1-2)Man(a1-6)]Man(b1-4)GlcNAc(b1-4)GlcNAc
Method in brief: as §1

[30] = target: Gal(b1-4)GlcNAc(b1-2)Man(a1-3)[Man(a1-6)]Man(b1-4)GlcNAc(b1-4)GlcNAc
Method in brief: as §1

[31] = target: Gal(b1-4)GlcNAc(b1-2)Man(a1-6)Man(b1-4)GlcNAc(b1-4)GlcNAc
Method in brief: as §1

[32] = target: Gal(b1-4)GlcNAc(b1-2)Man(a1-6)[GlcNAc(b1-2)Man(a1-3)]Man(b1-4)GlcNAc(b1-4)GlcNAc
Method in brief: as §1

B1: EUL D1A (Oryza sativa) (protein)
chain: MFGFGHHHNQAPAAPSDPNQIFKIFCRANENYCLTVRDSAVVLAPVNPKDEHQHWFKDMRFSTKVKDGEGMPAFALVNKATGLAVKHSLGQSHPVKLVPFNPEYEDASVLWTESKDVGKGFRCIRMVNNTRLNLDAFHGDKDHGGVRDGTTVVLWEWCKGDNQSWKILPWGPEAHSSSPGAATACTIGGVPVHTVRVFSAAGEDYCLTVRNGTACLAPKNPRDDYQHWIKDMRHSNKIRDEEGYPAFALVNKVTGEAIKHSTGQGHPVKLVPYNPEYQDESVLWTESKDVGKGFRCIRMVNNIYLNFDAFHGDKDHGGIHDGTEIVLWKWCEGDNQRWKILPWILEQKLISEEDLNSAVDHHHHHH
B1 was tested, and the “glycan array binding signal (z-score)” value [1] was 2.06, the “glycan array binding signal (z-score)” value [2] was 1.55 and the “glycan array binding signal (z-score)” value [3] was -0.182. The “glycan array binding signal (z-score)” value [4] was 0.426, the “glycan array binding signal (z-score)” value [5] was 0.644 and the “glycan array binding signal (z-score)” value [6] was 0.974. For the same binder, the “glycan array binding signal (z-score)” value [7] was -1.08, the “glycan array binding signal (z-score)” value [8] was -0.595 and the “glycan array binding signal (z-score)” value [9] was -0.146. The “glycan array binding signal (z-score)” value (Gal(b1-3)GlcNAc6S) was -0.943, the “glycan array binding signal (z-score)” value [10] was -0.247 and the “glycan array binding signal (z-score)” value [11] was -0.158. The “glycan array binding signal (z-score)” value [12] was 0.658, the “glycan array binding signal (z-score)” value [13] was -0.837 and the “glycan array binding signal (z-score)” value [14] was -0.883. The “glycan array binding signal (z-score)” value [15] was -0.229, the “glycan array binding signal (z-score)” value [16] was -0.369 and the “glycan array binding signal (z-score)” value [17] was 0.492. The “glycan array binding signal (z-score)” value [18] was -0.484, the “glycan array binding signal (z-score)” value [19] was 0.018 and the “glycan array binding signal (z-score)” value (Gal(b1-4)Gal) was -0.703. The “glycan array binding signal (z-score)” value [20] was -0.914, the “glycan array binding signal (z-score)” value [21] was -0.23 and the “glycan array binding signal (z-score)” value (Gal(b1-4)Glc) was -1.3. For the same binder, the “glycan array binding signal (z-score)” value (Gal(b1-4)Glc6S) was -0.659, the “glycan array binding signal (z-score)” value (Gal(b1-4)GlcNAc) was -0.896 and the “glycan array binding signal (z-score)” value [22] was 0.248. For the same binder, the “glycan array binding signal (z-score)” value (Gal(b1-4)GlcNAc(b1-2)Man) was 0.883, the “glycan array binding signal (z-score)” value [23] was -0.73 and the “glycan array binding signal (z-score)” value [24] was -0.064. The “glycan array binding signal (z-score)” value [25] was 1.25, the “glycan array binding signal (z-score)” value [26] was -0.538 and the “glycan array binding signal (z-score)” value [27] was -1.5. The “glycan array binding signal (z-score)” value [28] was -0.742, the “glycan array binding signal (z-score)” value [29] was 0.239 and the “glycan array binding signal (z-score)” value [30] was -0.581. For the same binder, the “glycan array binding signal (z-score)” value [31] was -0.069 and the “glycan array binding signal (z-score)” value [32] was -1.47.
